Assay results: patent US20200078441A1
No constants are given. Whether binding was seen depends on the method and setting. Some entries that bind do so weakly or less than the wild type.

Protein sequences, listed by entry. Tags and fused reporters are not part of them. Lines headed by an entry give the natural chain unless they say otherwise; changes in a name come on top. Chains listed by the source or under a name are the forms on record and can include a tag or linker.
recombinant His-tagged AGO2 protein (human Argonaute 2, baculovirus-expressed) (Q9UKV8, form named): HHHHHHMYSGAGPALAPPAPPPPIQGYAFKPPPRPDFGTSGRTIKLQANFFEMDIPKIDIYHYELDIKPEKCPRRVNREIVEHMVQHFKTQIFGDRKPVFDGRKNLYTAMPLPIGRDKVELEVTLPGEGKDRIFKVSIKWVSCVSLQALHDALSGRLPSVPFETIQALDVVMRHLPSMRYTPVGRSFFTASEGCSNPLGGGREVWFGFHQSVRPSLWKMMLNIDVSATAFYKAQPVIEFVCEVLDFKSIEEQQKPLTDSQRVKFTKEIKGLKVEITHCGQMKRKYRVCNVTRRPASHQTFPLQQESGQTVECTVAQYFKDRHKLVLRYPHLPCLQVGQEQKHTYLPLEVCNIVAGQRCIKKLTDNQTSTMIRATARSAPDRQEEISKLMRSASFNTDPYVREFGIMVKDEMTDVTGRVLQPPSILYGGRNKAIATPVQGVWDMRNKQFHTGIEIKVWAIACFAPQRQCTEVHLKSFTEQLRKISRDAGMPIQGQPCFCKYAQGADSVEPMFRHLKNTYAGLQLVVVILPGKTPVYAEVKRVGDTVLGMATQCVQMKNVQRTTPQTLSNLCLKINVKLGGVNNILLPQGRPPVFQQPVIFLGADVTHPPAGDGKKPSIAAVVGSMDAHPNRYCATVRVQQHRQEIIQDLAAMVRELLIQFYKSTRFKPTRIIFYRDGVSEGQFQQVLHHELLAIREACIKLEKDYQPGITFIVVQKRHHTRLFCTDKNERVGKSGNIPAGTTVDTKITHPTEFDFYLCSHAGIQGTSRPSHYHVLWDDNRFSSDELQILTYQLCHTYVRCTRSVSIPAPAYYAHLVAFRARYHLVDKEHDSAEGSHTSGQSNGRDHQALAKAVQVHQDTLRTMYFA

Key:
[1] = target: recombinant His-tagged AGO2 protein (human Argonaute 2, baculovirus-expressed) (human) (UniProt Q9UKV8); test: PepSpot peptide array on nitrocellulose probed with His-AGO2, anti-His HRP
[2] = target: recombinant His-tagged AGO2 protein (human Argonaute 2, baculovirus-expressed) (human) (UniProt Q9UKV8); test: PepSpot peptide array of 27 MSI1 C-terminal peptides incubated with recombinant His-tagged AGO2 (2 µg), detected with anti-His-HRP

binding [1]	binding [2]	Binder
binds	binds	HSLGGPLIATAFTNG [PepSpot array peptide 26 of the MSI1 C-terminus (…)]
	binds	PWTMAPPPGSTPSRT [PepSpot array peptide 18]
binds	binds	YQFPEFRVERTPLPS [PepSpot array peptide 11 of the MSI1 C-terminus (…)]
	binds	GLAPGYTYQFPEFRV [PepSpot array peptide 10]
